The values that follow come from paper PMC5133643.

Results are given in words; binding and its absence hold for the method and conditions named. Binding seen in cells or lysates may run through a third protein. Binding calls can cover weak binding; strength is not graded here. Tags and fused reporters may be left off the sequences shown.

For this assay, the target named is T1, 6X-His tagged Hha (hemolysin expression modulating protein), chromosomally tagged (S. Typhimurium) (UniProt Q7CR17).
T1 sequence: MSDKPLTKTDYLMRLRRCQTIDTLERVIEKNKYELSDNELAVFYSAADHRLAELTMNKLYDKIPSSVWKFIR
The assay is described as follows: pull-down; lysates of cells with chromosomally His-tagged protein bound to Ni-NTA beads; washed with 50 mM Tris pH 8.0, 10 mM imidazole; eluted with 200 mM imidazole; 12% SDS-PAGE; blots with anti-His, re-probed with anti-TomB; wild-type lysate as control.

In the case of TomB (previously known as YbaJ), the binding entry is “binds”.
